According to article PMC10820826, “Interrogation and validation of the interactome of neuronal Munc18-interacting Mint proteins with AlphaFold2” (The Journal of Biological Chemistry, 2023):

How the values were obtained:
[1] = system: Munc18-1^Δ317–333 + Mint1; test: ITC of Sx1a binding to Munc18-1 hinge-loop deletion mutant in the presence of Mint1 (261–282) peptide; set-up: species or system rat; conditions: Table 2; cell Munc18-1^Δ317–333 + Mint1
Description: As Mint1 binds to Munc18-1 domain 3b, we hypothesized that the perturbed Mint1 interaction on deletion of the distal domain 3a hinge-loop might be due to altered structural dynamics in the combined domain3a/3b module. […] This is in line with the ability to cocrystallize the three proteins when excess Mint1 peptide is present ([47]). […] This has potential implications for a role of Mint proteins in Munc18-1-mediated SNARE assembly, which is a tightly regulated and highly dynamic process.
For ITC, all peptides were weighed and initially dissolved in the working buffer to make a stock concentration of 2 mM. […] GST-Mint1 and all the other proteins used in the experiments were buffer exchanged into 50 mM Tris (pH 8.0) and 200 mM NaCl by gel filtration prior to ITC. […] Mint1 PTB domain binding to the APP and TJAP1 peptides was performed in 50 mM Hepes, 200 mM NaCl, 0.5 mM TCEP, and 5% glycerol at 25 °C with 1 mM peptides titrated into 50 μM Mint1 PTB domain. The binding parameters, equilibrium constant Ka (1/Kd), stoichiometry (n), and the enthalpy (ΔH) were determined by processing the ITC data using ORIGIN 7.0 software. The equation, ΔG = ΔH – TΔS, was used to calculate the Gibbs free energy (ΔG), and all the experiments were performed in triplicate or duplicate to calculate the SEM for thermodynamic parameters.

[2] = system: Munc18-1 + Mint1; test: ITC of Sx1a binding to Munc18-1 in the presence of Mint1 (261–282) peptide; set-up: species or system rat; conditions: Table 2; syringe Sx1a + Mint1, cell Munc18-1 + Mint1

## Sx1a: recombinant rat Syntaxin1a (Sx1_1–261-His) expressed in E. coli
[1]
  N (stoichiometry): 1
  ΔG: -9.6 kcal/mol
  −TΔS: 9.2 kcal/mol
[2]
  N (stoichiometry): 1
  ΔG: -9.0 ± 0.3 kcal/mol
  ΔH: -29.7 ± 1.9 kcal/mol
  −TΔS: 20.7 ± 2.4 kcal/mol
